Assay results from patent publication US8409550B2, “Method for treating skin with retinoids and retinoid boosters” (Unilever Home & Personal Care, USA, Division of Conopco, …, priority 2000, dated 2013).

System: cytochrome P450 dependent retinoic acid oxidation
Experiment: Assay for NADPH dependent retinoic acid oxidation, rat liver microsomes (to identify B5)
Settings: compound 100 μM

Clc1ccccc1C(c1ccccc1)(c1ccccc1)n1ccnc1 [Clotrimazole]
% Inhibition Retinoic Acid (100 μM): 85%
